From patent EP4818193A1, “COMPOSITION AND METHOD FOR TREATING NEONATAL HYPOXIC-ISCHEMIC ENCEPHALOPATHY” (Suzhou Glenkol Pharma Technology Co., Ltd., priority 2023, dated 2025)
At least one peptide structure holds a part that was inferred or is arguable (an end, a ring closure or a residue). Ends that are not written are not given here.

Tests used:
[1] = tested on: cerebral cortical neural cells; experiment: Lactate dehydrogenase (LDH) cytotoxicity assay after oxygen-glucose deprivation; type: cell-based, neonatal rats; settings: for LDH release levels: 24 hours after injury
[2] = tested on: cerebral cortical neural cells; experiment: MTT assay for cell viability after oxygen-glucose deprivation; type: cell-based, neonatal rats; settings: 24 hours after injury
[3] = Body weight measurement to assess overall health status after neonatal hypoxic-ischemic encephalopathy injury; type: in vivo, neonatal rats; settings: 10 mg/kg body weight, tail vein injection 1 hour after injury, relative to pre-injury
[4] = 0.1 M, added at initiation of oxygen-glucose deprivation, compared to untreated oxygen-glucose deprivation group, p < 0.05
[5] = 1 M, added at initiation of oxygen-glucose deprivation, compared to untreated oxygen-glucose deprivation group, p < 0.05
[6] = 24 hours post-injury (Day 8), untreated injury 5.42%, normal 13.47%
[7] = 48 hours post-injury (Day 9), untreated injury 13.4%, normal 26.77%
[8] = any concentration (0.01 M, 0.1 M, 1 M, or 10 M), compared to untreated group

Sequence | LDH release levels [1, 4] | LDH release levels [1, 5] | concentrations at which pretreatment exerts neuroprotective effects on cells in vitro ([1]; oxygen-glucose deprivation, conclusion from LDH and MTT assays) | MTT formation levels [2, 4] | MTT formation levels [2, 5] | body weight increase [3, 6] | body weight increase [3, 7] | LDH release levels [1, 8] | MTT formation levels [2, 8]
YGRKKRRQRRRKKNRNKLRRQHSY [S1] | significantly reduced | significantly reduced | 0.1-1 M | significantly increased | significantly increased | 12.9% | 23.32% | – | –
YGRKKRRQRRRNRRRNSKLQHKKY [scrambled peptide, reference compound] | – | – | – | – | – | 9.23% | 17.89% | did not alter | did not alter
